Hit rate of the full screen: of about 31,000 sequences, about 1,400 (4.5%) were called active.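 Rule for the calls: active = median seed-adjusted z-score above 1 or below -1; inactive = the rest.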 Some of the results follow.
experiment: Novel Modifiers of Survival Motor Neuron (SMN) Protein: Gene Identification via Genome-wide siRNA Screen; conditions: HEK293T SMN2-luciferase reporter, siRNA knockdown, 72 h; actives lie on both sides;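 note: luminescence tracks full-length SMN protein made from the SMN2 reporter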
Summary of the method: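 Genome-wide siRNA screen (10418 genes, 3 siRNAs each, 1 pmol per well) by reverse transfection in HEK293T cells stably carrying an SMN2-luciferase reporter; luminescence after 72 hours, normalized to negative-control siRNA, log10-transformed, MAD-scored.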

Sequence	median seed-adjusted z-score
CUAAUUAGAUGACAGCAAATT against FOXJ1	inactive: -0.553
GACUAUGGAGAAAACGAGATT against CXCR3	inactive: 0.693
GCAUUAUGGGUUUUCAGUUTT against GPR18	inactive: -0.378
AAAUAAUUAGAAUGAGCAATT against LAIR2	inactive: -0.481
CGCCCAGAGAUUCACCCAATT against THA1P	inactive: -0.509
CACUGAAUGUGAGAGCUGUTT against HRC	active: 1.06
AAUUUUCCUGUGAUAGAAATT against PATE1	active: 1.21
GUAAUGUUCUUAAACGAAUTT against PPP2R5C	active: 1.14
ACGACUCUUUGGUACCACATT against ATP6AP1	inactive: 0.358
GCCCUAAACCUGCCGGAAATT against EVX1	active: 1
GAGAGAGAGGGAUAGAAAATT against ANK1	inactive: -0.282
GAAUCCAGAGUUUCUGUAATT against GRPEL2	inactive: 0.0821
CCCUCUCACCAUUACUUCATT against CRYAB	inactive: 0.354
AAAUGAUUCAGCUCCCUUATT against SPRR1B	inactive: -0.721
AUAAAAAGCCUCCUCCAUATT against GLUD2	inactive: -0.0225
CUAUGUAUUCUGCAACAAATT against CTH	inactive: 0.629
CAAUCCUCAUGCUAAACCATT against SGK1	inactive: -0.659
GGACGAAUGUUUGAGGUCUTT against B3GNTL1	inactive: 0
CAGUCACCAAGCAAGCUUATT against CTSE	inactive: -0.1
GGUGGAUCUUCAUACAGUUTT against NAT8B	inactive: 0.206
GAAUCUUACGGGAAGAUCATT against SMAD7	inactive: -0.25
GAUUGAUAGAGACAAUUCATT against RNGTT	active: -1.55
AAUCGCUCAUGGUUUUUAATT against LRFN3	inactive: 0.483
GGCUCAACGUAUAAGCGAATT against PIP5K1B	inactive: 0.0917
CCAGAAAAAUCAUACAGGATT against ZNF260	inactive: -0.682
CCAACUGUCUUAGUACCCATT against RBM25	inactive: -0.265
UGCCCAUGCUGGUUUCAUATT against DAK	inactive: -0.372
GGACGGUAGAAGAUCAAUUTT against MYH13	inactive: 0.612

Given bar-delimited: part of the list above
Sequence | median seed-adjusted z-score
CGCCCAGAGAUUCACCCAATT against THA1P | inactive: -0.509
AAAUGAUUCAGCUCCCUUATT against SPRR1B | inactive: -0.721

Continuation.

Sequence	median seed-adjusted z-score
GAAGCUACUCCAUAGAUUUTT against INPP4B	inactive: 0.0722
GAGUCACAGAAUAGAUUAATT against KLRA1	inactive: 0.918
CCAUAUCAGGAUAUCAGGATT against PPIL4	inactive: 0.00225
GGGAGAUGCUAACAAGGGATT against ZAK	inactive: -0.113
GGCUCCUACUUGAUGGUCATT against PTPRU	inactive: 0
AGAUAAGCAUGGUGCCCAATT against BPI	inactive: 0
ACACCAGGGUUGUCUACAATT against LCAT	inactive: 0.526
CCAUGAUCAUGAUUGGGAUTT against SLC46A2	inactive: 0
CACCGACGGUGAUGGAGAATT against PPP3R2	inactive: -0.143
CAGUCUGCCGAAGAAGUAATT against CDC2L1	active: -1.14
GGGUAUCAGAGGAAAACGATT against KRIT1	inactive: -0.447
GUGCUUAAUAUAUCGGAAATT against IL1R1	inactive: 0.135
GGCUGCACAUAUACCUUAATT against RRN3	inactive: 0.0382
GAGCUGCACCUAGAGAUGATT against RBP1	inactive: 0.321
CGACGACCUUCGACUAAAATT against PIP3-E	inactive: 0.676
GCUUAUCGGUUGAUCAUCATT against SLC6A4	active: 1.43
CCCUGCAGGCGAAAAAGAATT against PRRX1	inactive: -0.172
GGAUCUAUCUUAACGACCATT against GAN	active: -1.07
GGCUCUUACGGCUACAAUUTT against HOXB5	inactive: 0.061
GCCUGCAAGUGUCCCAAAATT against NTN1	inactive: -0.0419
CGGUGACUGUCCCAACUUUTT against TNFRSF1A	inactive: 0.00772
GGCAUUCGCUUGAACAGCATT against DRG1	inactive: 0.336
AGAGCAUGUUCAAACUGUATT against EFHD1	inactive: -0.326
CACGGACUCCAAAACAGUATT against ST14	inactive: -0.534
GCCGGACGACGACAUUCUATT against NRGN	inactive: -0.381
GGACAGUCAUUGAUAGUUATT against XPOT	inactive: 0.366
GUACAUGACUAUAUCAGGATT against ANXA5	inactive: 0.268

Reformatted with bars between the fields: entries from further up
Sequence | median seed-adjusted z-score
CAAUCCUCAUGCUAAACCATT against SGK1 | inactive: -0.659
CCAUGAUCAUGAUUGGGAUTT against SLC46A2 | inactive: 0
